Laboratory results as given in article PMC12170873, “The Spc105/Kre28 complex promotes mitotic error correction by outer kinetochore recruitment of Ipl1/Sli15” (The EMBO Journal, 2025).
No constants are given. Whether binding was seen depends on the method and setting. Some binding calls cover weakened binding; strength is not graded here. Sequences can lack the tags named with a protein.

T1: Spc105-Flag (S. cerevisiae) (UniProt P53148)
T1 sequence: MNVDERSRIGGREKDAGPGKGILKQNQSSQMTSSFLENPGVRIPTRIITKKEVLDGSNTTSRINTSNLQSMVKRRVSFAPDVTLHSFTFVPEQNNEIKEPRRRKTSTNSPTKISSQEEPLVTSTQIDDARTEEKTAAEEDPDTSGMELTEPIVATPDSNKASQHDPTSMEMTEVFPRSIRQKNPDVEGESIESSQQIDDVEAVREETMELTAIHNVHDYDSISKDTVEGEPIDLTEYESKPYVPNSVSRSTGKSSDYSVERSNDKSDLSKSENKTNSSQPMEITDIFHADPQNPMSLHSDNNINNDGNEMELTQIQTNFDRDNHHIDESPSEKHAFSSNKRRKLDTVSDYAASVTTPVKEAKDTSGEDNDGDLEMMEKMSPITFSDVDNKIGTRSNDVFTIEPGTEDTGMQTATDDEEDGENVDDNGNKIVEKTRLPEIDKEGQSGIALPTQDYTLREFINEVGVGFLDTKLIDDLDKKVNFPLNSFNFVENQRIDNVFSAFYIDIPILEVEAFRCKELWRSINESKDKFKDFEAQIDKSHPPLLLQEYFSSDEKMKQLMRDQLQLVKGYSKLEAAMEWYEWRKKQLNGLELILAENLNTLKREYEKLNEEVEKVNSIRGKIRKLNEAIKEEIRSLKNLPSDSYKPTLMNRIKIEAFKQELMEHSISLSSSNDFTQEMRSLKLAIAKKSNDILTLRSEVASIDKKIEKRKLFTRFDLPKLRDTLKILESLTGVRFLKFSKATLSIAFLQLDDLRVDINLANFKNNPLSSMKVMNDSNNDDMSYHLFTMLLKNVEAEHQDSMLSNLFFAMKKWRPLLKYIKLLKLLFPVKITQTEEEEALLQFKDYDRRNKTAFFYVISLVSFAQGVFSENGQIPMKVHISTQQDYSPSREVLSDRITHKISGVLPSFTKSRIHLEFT


Legend:
[1] = target: T1, Spc105-Flag (S. cerevisiae); experiment: SEC; ten KMN subunits co-expressed in Sf9 cells from two baculoviruses; single-step anti-Flag purification via Spc105-Flag, then analytical SEC on a Superose 6 column
[2] = target: T1, Spc105-Flag (S. cerevisiae); experiment: cross-linking; recombinant KMN and Ipl1/Sli15 mixed at equimolar amounts, BS3 (d0/d12), 35 °C, 30 min; cross-links identified by mass spectrometry (xQuest); both purified

binding [1]	binding [2]	Binder
binds		Kre28^WT, untagged (protein, UniProt Q04431 1-385) MDTGSASIKDYETVLTDIEDSIAVSSEEVLNNQELRLKNTLHEITSSILAINEENKFVNPLRNDESLDVEGKEVFVNPKILSAKIKEFNKLMELLKLTYLEQETLDYFFRFTLSSTKPLQLDSEKDPQFVKLNERVNDLKEEISNVQESKIEQIKAEIQETGHNFAERQDLINELYLEATGDIENCWDSLNELKNLTNKEDKNMMGEKDTILNSSDSDDFVEETYTNWQKLLFLQKQNQRLTKELKEMHEVKNQIIRKGEQSKKEDSGHLMANESELCQSINLLTKFWEKHFLLKGSKTTILNFEIFTQLGKVQFEIKDMQYIIAISLSDLKRPMIKDITILQKAGGNIVTDIEASSKFNNKYRNNTKVQIFEVMDDIISELTNE
	binds	6xHis-Sli15 (protein, UniProt P38283 1-698) MDWAIKAARKKTQRKPGSTRSIIETLDDLNNLTTDAHSEINQRLYESSEWLRNNVYMNTLKYEDKKMEESLISPENTHNKMDVEFPKMKGEYELSNSQNDAAKDVTKTPRNGLHNDKSITPKSLRRKEVTEGMNRFSIHDTNKSPVEPLNSVKVDANESEKSSPWSPYKVEKVLRESSKTSESPINTKRFDNQTWAAKEEMENEPILQALKKAESVKVKPPPNSGIARSQRRSNMFVPLPNKDPLIIQHIPPTKSSGSIPKVRTVKESPIAFKKKSTINSPAIRAVENSDTAGSTKASSVFDRLSSIPTKSFENKISRGNVGHKYSSSSIDLTGSPMKKVSQKFKSINSTDTDMQEALRDIFSVKNKITKNNSPKGKNSRKSSIPRFDKTSLKLTTHKKLAIIAEQKKKSKHSSDVHKTGSRPHSISPTKISVDSSSPSKEVKNYYQSPVRGYLRPTKASISPNKNKNLTTSQTPHRLKIKEKTLRKLSPNIADISKPESRKSKNYRLTNLQLLPPAEAERDDLKKKFDKRLSGIMRSQQEHHRRKQEKQKRMSHLEQDLKKQTSFSNDYKDIRLKESLAPFDNHVRDTINKNTAFSTDNILATINTVDHREIIGNVTPKIASVNDSLPEINTDSEDEASVTLAAWAKSPYLQEQLIRQQDINPQTIFGPIPPLHTDEIFPNPRLNRLKPRQIVPKRS
